{
  "source": "patent US10711245B2",
  "about": "“Direct conversion method of human fibroblasts into neural stem cells using small molecules” (KOREA UNIVERSITY RESEARCH AND BUSINESS FOUNDATION, priority 2015, dated 2020)",
  "test_system": "human fibroblasts",
  "assay": "Marker gene expression by quantitative PCR in human fibroblasts cultured with each single small-molecule compound",
  "format": "cell-based",
  "details": "each compound alone in neurobasal medium (DMEM/F12, N2, B27, bFGF, EGF), markers nestin, sox1, sox2, pax6",
  "protocol": "To investigate the function of each of small-molecule compounds and find an optimal combination of small-molecule compounds, 1×10^5 human fibroblasts were prepared in 60 mm dishes, and on the next day, the cells were cultured in a neurobasal medium (containing DMEM/F12, N2, B27, bFGF, and EGF) supplemented with each of 13 different small-molecule compounds (PD0325901, SB431542, Thiazovivin, Ascorbic acid, PS48, CHIR99021, Deazaneplanocin A, Valproic acid, Forskolin, Tranylcypromine, A8301, 5-AZA, and Purmorphamine). Then, the morphological changes of the cells were observed while the medium was replaced at 2-3-day intervals (FIG. 1). The cells were subcultured at 5-day intervals, and in this stage, the cells were sampled in order to examine gene expression patterns therein. Using the cell sample, the expression patterns of a fibroblast marker (Thy1), neural stem cell markers (nestin, sox1, sox2, pax6), a MET or EMT marker (snail, N-cadherin, E-cadherin), endodermal and mesodermal markers (AFP, GATA4), and a marker (Zsacn4) associated with the maintenance of chromosomal stability, in the cell sample, were analyzed by quantitative PCR (FIG. 2).",
  "note": "For at least one compound, name, drawing or mass did not settle the structure.",
  "data": [
    {"smiles": "c1ccc2c(Oc3nc(Nc4ccc(N5CCOCC5)cc4)c4ncn(C5CCCCC5)c4n3)cccc2c1", "note": "[Purmorphamine, 9-cyclohexyl-N-[4-(morpholinyl)phenyl]-2-(1-naphthalenyloxy)-9H-purin-6-amine]", "values": [
      {"measurement": "expressions of the neural stem cell marker genes", "value": "distinctly increased"}
    ]}
  ]
}
